Measured values reported in article PMC11599839.
These are yes or no findings as the source states them, for the method shown. Binding seen in cells or lysates may run through a third protein. Tags and fused reporters may be left off the sequences shown.

Target: T1, SNAP-GIPR (glucose-dependent insulinotropic polypeptide receptor with an N-terminal SNAP-tag), P48546
T1 chain: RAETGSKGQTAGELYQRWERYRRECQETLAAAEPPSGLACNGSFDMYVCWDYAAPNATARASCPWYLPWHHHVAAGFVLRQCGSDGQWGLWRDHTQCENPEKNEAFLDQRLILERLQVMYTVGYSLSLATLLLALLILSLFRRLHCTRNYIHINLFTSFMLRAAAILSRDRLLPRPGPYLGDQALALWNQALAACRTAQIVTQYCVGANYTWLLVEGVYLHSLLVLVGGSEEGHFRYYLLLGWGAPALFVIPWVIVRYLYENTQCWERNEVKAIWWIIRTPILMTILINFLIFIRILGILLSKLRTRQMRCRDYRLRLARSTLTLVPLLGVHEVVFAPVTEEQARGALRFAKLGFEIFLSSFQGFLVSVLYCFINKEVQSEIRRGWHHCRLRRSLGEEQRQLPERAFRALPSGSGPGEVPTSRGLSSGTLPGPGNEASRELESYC
Assay: FRET or BRET; FRET by acceptor bleaching between Halo-GLP1R (CA-SS-SulfoCy3) and SNAP-GIPR (BG-SS-SulfoCy5) once internalized in co-expressing cells
Settings: remark: other sources report otherwise

B1: Halo-GLP1R (glucagon-like peptide-1 receptor with an N-terminal Halo-tag), P43220 24-463 (receptor)
chain: RPQGATVSLWETVQKWREYRRQCQRSLTEDPPPATDLFCNRTFDEYACWPDGEPGSFVNVSCPWYLPWASSVPQGHVYRFCTAEGLWLQKDNSSLPWRDLSECEESKRGERSSPEEQLLFLYIIYTVGYALSFSALVIASAILLGFRHLHCTRNYIHLNLFASFILRALSVFIKDAALKWMYSTAAQQHQWDGLLSYQDSLSCRLVFLLMQYCVAANYYWLLVEGVYLYTLLAFSVLSEQWIFRLYVSIGWGVPLLFVVPWGIVKYLYEDEGCWTRNSNMNYWLIIRLPILFAIGVNFLIFVRVICIVVSKLKANLMCKTDIKCRLAKSTLTLIPLLGTHEVIFAFVMDEHARGTLRFIKLFTELSFTSFQGLMVAILYCFVNNEVQLEFRKSWERWRLEHLHIQRDSSMKPLKCPTSSLSSGATAGSSMYTATCQASCS
modifications: here or on the partner: Halo-tag labelled with CA-SS-SulfoCy3; SNAP-tag labelled with BG-SS-SulfoCy5
In the case of B1, the binding is reported as “no binding”.
